# Library screen at single concentrations

From ChEMBL document CHEMBL3988442, “University of Dundee, Small-Polar-MMV Screening Library” (2021).

The filed quantity is “Percent Effect” (%).
The record does not define 0% and 100%; most values in the screen are far below 50% and negative numbers occur (in some assays of this library far below -100).
This is an unselected part of the compounds tested.

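Whole-parasite assay of Trypanosoma brucei over 72 hours; the read-out is not stated. Concentration: 30 µM. The record gives no direction; compounds that gave an IC50 in retests scored well above the rest, so higher reads as stronger inhibition. Values scatter widely below zero; nearly all retest evidence comes from the higher of the two concentrations used. About 64,000 compounds were tested under these conditions; 1.5% (about 940) showed 50% or more at least once.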

CC(O)CN1CCN(C(=O)c2ccn(-c3ccc(F)cc3)n2)CC1 (stereo unspecified) read -6.62%.
Cc1ccc(C)c(Sc2nccn(C)c2=O)c1 read 6.087%.
NC(=O)C1CCN(C(=O)CCCc2nnc(-c3ccccc3)o2)C1 (stereo unspecified) read 4.58%.
CN(C)C(=O)NC1COC2(CCN(Cc3ccccc3)CC2)C1.O=C(O)C(F)(F)F (stereo unspecified) read -17.67%.
CCOc1nc2cnccc2n(CC(=O)Nc2ccccc2OC)c1=O read -2.866%.
Cc1cc(C)c(CNC(=O)NCC2Cc3ccccc3O2)c(=O)[nH]1 (stereo unspecified) read 4.959%.
O=C(CC1CCCC1)Nc1ccc(-n2cc(Cl)cn2)nc1 read -37.58%.
Cn1cc(C2COC3(CCN(C(=O)c4cccn4C)CC3)C2)cn1 (stereo unspecified) read -1035%.
CC(C)CCc1noc(CN2CCCN(C(=O)c3ccco3)CC2)n1 read -13.97%.
Cn1cnc2c1CCN(CCCOc1ccc(S(C)(=O)=O)cc1)C2 read -9.618%.
Cc1occc1C(=O)N1CCCC2(CCN(c3ccccc3)C2=O)C1 (stereo unspecified) read -29.83%.
CCc1noc(C)c1C(=O)NCCCC(CC)(CC)C1OCCO1 read -19.36%.
COc1ccc(S(=O)(=O)C2CCN(C(=O)c3cc(C)cs3)CC2)cc1 read -8.722%.
[H][C@@]12CN(Cc3cccnc3)C[C@]1([H])N(CCCN1CCOCC1)C(=O)O2 read -5.499%.
CN(CCc1ncnn1-c1ccccc1Cl)C1CCS(=O)(=O)C1 (stereo unspecified) read -27.1%.
COCC(=O)NCc1cc(=O)n2c(n1)CN(Cc1ccccc1)CCC2.O=C(O)C(F)(F)F read -84.77%.
Cn1cc(CCC(=O)N2CCN(Cc3ccncc3)CC2)cn1 read 8.002%.
CNC(=O)CC1CCN(C(=O)NCC2(c3ccccc3F)CC2)CC1 read 7.662%.
Cc1ncc(-c2ccnc(N3CCC[C@@H]3CO)n2)c(-c2cccnc2)n1 read -11.9%.
CCC1CN(CCNS(C)(=O)=O)c2ccccc2O1 (stereo unspecified) read -53.12%.
Cc1cc(CN2CCC(C3CCN(CCc4ccccc4)C3)CC2)[nH]n1 (stereo unspecified) read -24.79%.
CCC(=O)N1CCN(c2cc(-n3cnc(C)c3C)nc(C)n2)CC1 read -40.58%.
COCCc1nc(CN2CC(C)(c3ccccc3)CCC2=O)no1 (stereo unspecified) read -38.42%.
CN(C)c1cc(C(=O)NCC2(c3cccc(F)c3)CCOCC2)ccn1 read -39.89%.
COc1ccc(N2Cc3nc(=O)n(C(C)C)n3C2=O)cc1 read -34%.
c1ccc(CN2CCc3ncnc(-c4cncnc4)c3CC2)nc1 read -9.902%.
[H][C@]12CN(C(=O)OC)CCN1C[C@@H](c1ccccc1)[C@@H]2C(=O)OCC read -16.25%.
CN1CCCC(CNC(=O)N2CCN(Cc3ccon3)CC2)C1 (stereo unspecified) read 38.29%.
Cc1ccccc1SCC(=O)Nn1cnnc1 read -45.42%.
CCn1c(C)cc(C(=O)Nc2ccccc2CN(C)C(C)=O)c1C read -34.59%.
N#Cc1ccc(NCc2cccc(OCC3CCCO3)c2)nc1 (stereo unspecified) read -30.09%.
Cc1ccsc1C(=O)Nc1cc(Br)c(=O)n(C)c1 read -3.116%.
CC(NC(=O)NCCCOC1CCCCC1)c1nncn1C (stereo unspecified) read 16.94%.
CCOc1ccc(Cl)c(C(=O)NC(Cc2ccccc2)C(N)=O)n1 (stereo unspecified) read -68.11%.
O=C(O)[C@H]1CN(Cc2ccccc2)C[C@@H]1C(=O)c1ccccc1 read -1.63%.
CCC(N)C(=O)N1CCC(OCc2ccc(Cl)c(Cl)c2)CC1.Cl (stereo unspecified) read 14.43%.
OCc1c(Cl)ncn1-c1ccc(F)cc1 read -19.27%.
CCCOc1ccc(C(=O)N[C@@H]2CCNC[C@H]2O)cc1Cl read 6.975%.
Cn1cnnc1C1CCCN(C(=O)NCCNc2ccccn2)C1 (stereo unspecified) read 4.776%.
CCOCC(=O)N1CC(=O)Nc2cc(Br)ccc21 read 0.4933%.
Cc1cc(C(=O)N(CCN(C)C)Cc2ccc(Cl)cc2)no1 read -10.43%.
CC(C)Cc1noc(C2CCCCN2C(=O)CCc2cnn(C)c2)n1 (stereo unspecified) read -23.74%.
Cn1cc(C(=O)N2CCCN(C3Cc4ccccc4C3)CC2)cn1 read -60.07%.
CC(C)[C@@H]1CN(CCOc2ccccc2)C[C@H]1NS(=O)(=O)N(C)C read 99.19%.
Cc1nc(CN(C)c2nccc(C(F)(F)F)n2)cs1 read -17.05%.
CCc1nc(CN2CCCN(C(=O)c3ccccc3)CC2)cs1 read -39.32%.
Cl.OC1(Cn2ccc3ncccc32)CCN(Cc2ccccc2F)CC1 read 12.85%.
CCC(CC)CN1CCN(CC(=O)Nc2cccc3nsnc23)CC1 read -2.054%.
Cc1csc(C2(NCC(O)COc3ccc(F)cc3)CCC2)n1 (stereo unspecified) read -8.11%.
C[C@@H]1CN(C(=O)c2ccc(C#N)nc2)CC[C@@]1(O)C1CCOCC1 read 7.683%.
O=C(O)C(F)(F)F.O=C(O)C(F)(F)F.O=C(O)C(F)(F)F.[H][C@]12CCN(Cc3ccccn3)[C@@]1([H])CC[C@H](COCc1ccccn1)O2 read -132.8%.

Repeated from the top, 3 entries:

- CC(O)CN1CCN(C(=O)c2ccn(-c3ccc(F)cc3)n2)CC1 (stereo unspecified) | -6.62%
- Cc1ccc(C)c(Sc2nccn(C)c2=O)c1 | 6.087%
- NC(=O)C1CCN(C(=O)CCCc2nnc(-c3ccccc3)o2)C1 (stereo unspecified) | 4.58%